Measurements as given in publication PMC6486636.
Weaker means in comparison with the reference protein, sequence or condition of that experiment. For some of these results: For at least one entry, the source does not settle the construct or the ends of the probe. For some of these results: At least one verdict was read from the data and is not stated in words by the source.

Amino acid sequences for entries named in this document (tags omitted). Chains listed by the source or under a name are the forms on record and can include a tag or linker. Residues count along the entry.
UniProt Q71RC2, other isoform, or with tags, fused parts or gaps: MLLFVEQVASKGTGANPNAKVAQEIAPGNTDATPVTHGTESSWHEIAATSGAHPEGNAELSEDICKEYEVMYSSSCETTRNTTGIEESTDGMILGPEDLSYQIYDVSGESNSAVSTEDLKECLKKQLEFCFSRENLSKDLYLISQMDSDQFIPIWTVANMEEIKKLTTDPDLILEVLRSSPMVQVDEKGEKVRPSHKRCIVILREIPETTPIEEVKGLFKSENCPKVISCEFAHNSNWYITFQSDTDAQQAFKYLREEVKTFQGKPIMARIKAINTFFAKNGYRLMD
UniProt Q71RC2, 24-287: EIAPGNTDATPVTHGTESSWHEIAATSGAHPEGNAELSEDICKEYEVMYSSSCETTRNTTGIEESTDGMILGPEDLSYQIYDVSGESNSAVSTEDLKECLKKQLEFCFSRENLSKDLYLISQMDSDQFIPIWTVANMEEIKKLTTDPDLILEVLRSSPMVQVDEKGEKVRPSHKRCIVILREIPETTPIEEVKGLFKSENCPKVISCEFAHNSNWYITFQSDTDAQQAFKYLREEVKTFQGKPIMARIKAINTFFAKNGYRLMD
UniProt Q71RC2, 1-287 W22F: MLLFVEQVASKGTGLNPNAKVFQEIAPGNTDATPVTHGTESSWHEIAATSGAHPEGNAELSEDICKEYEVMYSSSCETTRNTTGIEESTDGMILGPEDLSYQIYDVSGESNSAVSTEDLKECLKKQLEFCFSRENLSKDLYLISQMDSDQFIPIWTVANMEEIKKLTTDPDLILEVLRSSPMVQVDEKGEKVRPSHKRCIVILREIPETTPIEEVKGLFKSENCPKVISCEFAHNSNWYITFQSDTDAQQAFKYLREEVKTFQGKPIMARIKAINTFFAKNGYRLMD
UniProt Q71RC2, 50-287: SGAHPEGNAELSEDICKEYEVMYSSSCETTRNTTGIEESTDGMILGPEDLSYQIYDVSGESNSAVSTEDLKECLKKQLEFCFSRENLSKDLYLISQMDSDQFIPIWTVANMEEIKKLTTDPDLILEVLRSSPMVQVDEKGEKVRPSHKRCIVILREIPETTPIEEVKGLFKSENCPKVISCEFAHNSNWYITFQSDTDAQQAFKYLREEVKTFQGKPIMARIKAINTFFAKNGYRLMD
UniProt Q71RC2, 79-287: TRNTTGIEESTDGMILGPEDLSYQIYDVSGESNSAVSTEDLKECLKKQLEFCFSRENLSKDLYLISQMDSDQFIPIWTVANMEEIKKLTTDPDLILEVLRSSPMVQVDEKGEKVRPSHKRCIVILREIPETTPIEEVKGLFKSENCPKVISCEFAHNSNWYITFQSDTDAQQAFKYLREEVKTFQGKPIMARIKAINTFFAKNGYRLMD
UniProt Q71RC2, other isoform, or with tags, fused parts or gaps, stated change not applied: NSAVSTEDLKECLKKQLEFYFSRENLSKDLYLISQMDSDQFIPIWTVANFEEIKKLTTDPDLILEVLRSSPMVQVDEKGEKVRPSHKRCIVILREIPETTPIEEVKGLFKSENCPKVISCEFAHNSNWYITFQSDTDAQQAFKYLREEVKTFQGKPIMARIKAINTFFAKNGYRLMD
UniProt Q71RC2, 95-287: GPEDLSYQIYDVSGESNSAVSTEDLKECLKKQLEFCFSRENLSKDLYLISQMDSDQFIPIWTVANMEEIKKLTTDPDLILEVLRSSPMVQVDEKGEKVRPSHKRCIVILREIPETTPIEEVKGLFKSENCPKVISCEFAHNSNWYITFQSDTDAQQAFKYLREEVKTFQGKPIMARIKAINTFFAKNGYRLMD
UniProt Q71RC2, 111-287: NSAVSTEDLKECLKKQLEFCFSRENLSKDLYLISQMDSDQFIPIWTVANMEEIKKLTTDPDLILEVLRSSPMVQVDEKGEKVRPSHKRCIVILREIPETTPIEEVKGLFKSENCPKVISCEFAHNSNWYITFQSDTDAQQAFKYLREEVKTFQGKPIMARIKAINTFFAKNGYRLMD
UniProt Q71RC2, 196-287: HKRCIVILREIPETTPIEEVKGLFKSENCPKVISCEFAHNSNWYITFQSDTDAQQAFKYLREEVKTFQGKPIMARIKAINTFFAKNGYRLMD
UniProt Q71RC2, 1-287 L15A: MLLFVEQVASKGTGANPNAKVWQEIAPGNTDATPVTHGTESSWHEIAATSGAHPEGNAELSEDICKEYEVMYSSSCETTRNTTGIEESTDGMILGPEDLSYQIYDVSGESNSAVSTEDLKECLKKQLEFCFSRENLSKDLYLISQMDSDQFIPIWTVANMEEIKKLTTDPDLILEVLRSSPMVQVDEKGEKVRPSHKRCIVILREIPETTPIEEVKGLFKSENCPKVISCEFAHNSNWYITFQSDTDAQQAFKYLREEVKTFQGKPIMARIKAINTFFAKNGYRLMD
UniProt Q71RC2, 1-287 W22A: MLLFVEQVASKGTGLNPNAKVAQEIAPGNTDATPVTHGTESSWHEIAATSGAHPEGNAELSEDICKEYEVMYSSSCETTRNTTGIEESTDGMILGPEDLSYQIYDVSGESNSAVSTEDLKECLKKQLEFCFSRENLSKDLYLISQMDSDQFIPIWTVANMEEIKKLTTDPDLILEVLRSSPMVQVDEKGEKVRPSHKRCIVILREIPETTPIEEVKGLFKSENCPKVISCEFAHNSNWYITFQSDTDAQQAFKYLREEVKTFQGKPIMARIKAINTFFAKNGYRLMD

Legend:
[1] = biological target: LARP4A NTD L15AW22A (Homo sapiens) (UniProt Q71RC2); assay: EMSA; conditions: severely impaired, Kd only in figure; EMSA: 20 mM Tris pH 7.25, 200 mM KCl, 5% glycerol, 1 mM DTT, 0.1 mg/ml BSA, 0.01 mg/ml E. coli tRNA, on ice, gel at 4 C; recombinant protein; residues 1-287; protein details: His tag, TEV-cleaved; label: 5' 32P (EMSA), unlabelled (NMR, native MS)
[2] = biological target: LARP4A 24-287 (Homo sapiens) (UniProt Q71RC2); assay: EMSA; conditions: with competitor tRNA; EMSA: 20 mM Tris pH 7.25, 200 mM KCl, 5% glycerol, 1 mM DTT, 0.1 mg/ml BSA, 0.01 mg/ml E. coli tRNA, on ice, gel at 4 C; recombinant protein; residues 24-287; protein details: His tag, TEV-cleaved; label: 5' 32P (EMSA), unlabelled (NMR, native MS)
[3] = biological target: LARP4A NTD W22F (Homo sapiens) (UniProt Q71RC2); assay: EMSA; conditions: low affinity, Kd only in figure; EMSA: 20 mM Tris pH 7.25, 200 mM KCl, 5% glycerol, 1 mM DTT, 0.1 mg/ml BSA, 0.01 mg/ml E. coli tRNA, on ice, gel at 4 C; recombinant protein; residues 1-287; protein details: His tag, TEV-cleaved; label: 5' 32P (EMSA), unlabelled (NMR, native MS)
[4] = biological target: LARP4A 50-287 (Homo sapiens) (UniProt Q71RC2); assay: EMSA; conditions: with competitor tRNA; EMSA: 20 mM Tris pH 7.25, 200 mM KCl, 5% glycerol, 1 mM DTT, 0.1 mg/ml BSA, 0.01 mg/ml E. coli tRNA, on ice, gel at 4 C; recombinant protein; residues 50-287; protein details: His tag, TEV-cleaved; label: 5' 32P (EMSA), unlabelled (NMR, native MS)
[5] = biological target: LARP4A 79-287 (Homo sapiens) (UniProt Q71RC2); assay: EMSA; conditions: with competitor tRNA; EMSA: 20 mM Tris pH 7.25, 200 mM KCl, 5% glycerol, 1 mM DTT, 0.1 mg/ml BSA, 0.01 mg/ml E. coli tRNA, on ice, gel at 4 C; recombinant protein; residues 79-287; protein details: His tag, TEV-cleaved; label: 5' 32P (EMSA), unlabelled (NMR, native MS)
[6] = biological target: LARP4A La module C130YM160F (Homo sapiens) (UniProt Q71RC2); assay: EMSA; conditions: no tighter than wild-type La module; EMSA: 20 mM Tris pH 7.25, 200 mM KCl, 5% glycerol, 1 mM DTT, 0.1 mg/ml BSA, 0.01 mg/ml E. coli tRNA, on ice, gel at 4 C; recombinant protein; residues 111-287; label: 5' 32P (EMSA), unlabelled (NMR, native MS)
[7] = biological target: LARP4A 95-287 (Homo sapiens) (UniProt Q71RC2); assay: EMSA; conditions: with competitor tRNA; EMSA: 20 mM Tris pH 7.25, 200 mM KCl, 5% glycerol, 1 mM DTT, 0.1 mg/ml BSA, 0.01 mg/ml E. coli tRNA, on ice, gel at 4 C; recombinant protein; residues 95-287; protein details: His tag, TEV-cleaved; label: 5' 32P (EMSA), unlabelled (NMR, native MS)
[8] = biological target: LARP4A La module (Homo sapiens) (UniProt Q71RC2); assay: EMSA; conditions: EMSA: 20 mM Tris pH 7.25, 200 mM KCl, 5% glycerol, 1 mM DTT, 0.1 mg/ml BSA, 0.01 mg/ml E. coli tRNA, on ice, gel at 4 C, recombinant protein, residues 111-287, protein details: His tag, TEV-cleaved, label: 5' 32P (EMSA), unlabelled (NMR, native MS)
[9] = biological target: LARP4A RRM1 (Homo sapiens) (UniProt Q71RC2); assay: EMSA; conditions: similar affinity to La module; EMSA: 20 mM Tris pH 7.25, 200 mM KCl, 5% glycerol, 1 mM DTT, 0.1 mg/ml BSA, 0.01 mg/ml E. coli tRNA, on ice, gel at 4 C; recombinant protein; residues 196-287; protein details: His tag, TEV-cleaved; label: 5' 32P (EMSA), unlabelled (NMR, native MS)
[10] = biological target: LARP4A NTD L15A (Homo sapiens) (UniProt Q71RC2); assay: EMSA; conditions: FAM-oligoA20; EMSA: 20 mM Tris pH 7.25, 200 mM KCl, 5% glycerol, 1 mM DTT, 0.1 mg/ml BSA, 0.01 mg/ml E. coli tRNA, on ice, gel at 4 C; recombinant protein; residues 1-287; protein details: His tag, TEV-cleaved; label: 5' fluorescein (FAM)
[11] = biological target: LARP4A NTD W22A (Homo sapiens) (UniProt Q71RC2); assay: EMSA; conditions: FAM-oligoA20; EMSA: 20 mM Tris pH 7.25, 200 mM KCl, 5% glycerol, 1 mM DTT, 0.1 mg/ml BSA, 0.01 mg/ml E. coli tRNA, on ice, gel at 4 C; recombinant protein; residues 1-287; protein details: His tag, TEV-cleaved; label: 5' fluorescein (FAM)
[12] = biological target: LARP4A La module (Homo sapiens) (UniProt Q71RC2); assay: MST; conditions: 25 C, agrees with EMSA, Kd only in figure; MST: 20 mM Tris pH 7.25, 100 mM KCl, 0.2 mM EDTA, 1 mM DTT, 0.05% Tween-20, 25 C; recombinant protein; residues 111-287; protein details: His tag, TEV-cleaved; label: 5' fluorescein (FAM)

Measured: binding result

AAAAAAAAAAAAAAA [oligoA15]
binds more weakly: [1] | [2] | [3] | [4] | [5] | [6] | [7] | [8]; no competitor tRNA, too weak to quantify | [8]; with competitor tRNA | [9]

AAAAAAAAAAAAAAAAAAAA [5'FAM-oligoA20]
binds more weakly: [10] | [11] | [12]
